The source of these data is article PMC10066299.

Sequences of proteins named here, by UniProt entry; tags and fusion partners are left off. A change or cut given only in a name is not applied to a line headed by its entry.
UniProt Q96RY7: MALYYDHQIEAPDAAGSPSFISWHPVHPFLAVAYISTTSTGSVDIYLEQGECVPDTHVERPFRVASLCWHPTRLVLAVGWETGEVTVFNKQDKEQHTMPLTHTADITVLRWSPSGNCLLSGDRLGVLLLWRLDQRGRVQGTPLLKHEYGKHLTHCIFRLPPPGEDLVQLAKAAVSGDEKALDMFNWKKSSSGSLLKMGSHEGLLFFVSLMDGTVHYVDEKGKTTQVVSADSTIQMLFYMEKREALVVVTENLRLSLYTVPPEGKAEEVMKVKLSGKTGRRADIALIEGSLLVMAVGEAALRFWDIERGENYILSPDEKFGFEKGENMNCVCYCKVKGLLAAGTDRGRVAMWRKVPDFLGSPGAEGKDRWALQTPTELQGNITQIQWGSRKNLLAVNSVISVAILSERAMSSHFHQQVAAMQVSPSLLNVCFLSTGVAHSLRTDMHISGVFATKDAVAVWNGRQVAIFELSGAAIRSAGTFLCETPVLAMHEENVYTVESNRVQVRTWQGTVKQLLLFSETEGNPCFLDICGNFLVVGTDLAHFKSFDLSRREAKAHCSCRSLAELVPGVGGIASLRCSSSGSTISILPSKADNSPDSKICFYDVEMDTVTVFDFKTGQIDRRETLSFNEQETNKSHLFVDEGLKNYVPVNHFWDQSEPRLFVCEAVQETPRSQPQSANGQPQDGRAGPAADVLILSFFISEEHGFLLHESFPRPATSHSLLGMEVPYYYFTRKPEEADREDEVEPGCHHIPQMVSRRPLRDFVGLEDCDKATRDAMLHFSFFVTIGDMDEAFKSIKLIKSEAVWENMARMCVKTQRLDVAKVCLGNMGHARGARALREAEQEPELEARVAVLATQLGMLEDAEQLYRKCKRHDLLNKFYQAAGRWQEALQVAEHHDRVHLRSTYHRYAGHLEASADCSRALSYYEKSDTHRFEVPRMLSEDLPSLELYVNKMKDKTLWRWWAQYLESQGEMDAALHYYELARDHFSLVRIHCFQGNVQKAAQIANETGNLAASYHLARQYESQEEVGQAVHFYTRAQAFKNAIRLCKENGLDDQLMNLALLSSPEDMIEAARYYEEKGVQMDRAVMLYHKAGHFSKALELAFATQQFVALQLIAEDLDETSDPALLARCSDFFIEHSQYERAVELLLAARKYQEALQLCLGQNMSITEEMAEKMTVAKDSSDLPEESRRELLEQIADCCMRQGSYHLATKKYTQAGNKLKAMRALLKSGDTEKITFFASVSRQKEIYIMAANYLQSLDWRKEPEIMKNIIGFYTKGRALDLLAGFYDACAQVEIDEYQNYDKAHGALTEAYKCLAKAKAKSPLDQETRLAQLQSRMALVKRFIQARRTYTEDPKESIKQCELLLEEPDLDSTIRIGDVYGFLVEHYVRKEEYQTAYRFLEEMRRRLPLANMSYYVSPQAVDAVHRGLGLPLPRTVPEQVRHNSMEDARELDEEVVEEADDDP

No constants are given. Whether binding was seen depends on the method and setting. Some entries that bind do so weakly or less than the wild type. For some assays here: Sequences can lack the tags named with a protein.

The target of experiment [1] is T1, IFT122 (human) (UniProt Q9HBG6).
T1 sequence: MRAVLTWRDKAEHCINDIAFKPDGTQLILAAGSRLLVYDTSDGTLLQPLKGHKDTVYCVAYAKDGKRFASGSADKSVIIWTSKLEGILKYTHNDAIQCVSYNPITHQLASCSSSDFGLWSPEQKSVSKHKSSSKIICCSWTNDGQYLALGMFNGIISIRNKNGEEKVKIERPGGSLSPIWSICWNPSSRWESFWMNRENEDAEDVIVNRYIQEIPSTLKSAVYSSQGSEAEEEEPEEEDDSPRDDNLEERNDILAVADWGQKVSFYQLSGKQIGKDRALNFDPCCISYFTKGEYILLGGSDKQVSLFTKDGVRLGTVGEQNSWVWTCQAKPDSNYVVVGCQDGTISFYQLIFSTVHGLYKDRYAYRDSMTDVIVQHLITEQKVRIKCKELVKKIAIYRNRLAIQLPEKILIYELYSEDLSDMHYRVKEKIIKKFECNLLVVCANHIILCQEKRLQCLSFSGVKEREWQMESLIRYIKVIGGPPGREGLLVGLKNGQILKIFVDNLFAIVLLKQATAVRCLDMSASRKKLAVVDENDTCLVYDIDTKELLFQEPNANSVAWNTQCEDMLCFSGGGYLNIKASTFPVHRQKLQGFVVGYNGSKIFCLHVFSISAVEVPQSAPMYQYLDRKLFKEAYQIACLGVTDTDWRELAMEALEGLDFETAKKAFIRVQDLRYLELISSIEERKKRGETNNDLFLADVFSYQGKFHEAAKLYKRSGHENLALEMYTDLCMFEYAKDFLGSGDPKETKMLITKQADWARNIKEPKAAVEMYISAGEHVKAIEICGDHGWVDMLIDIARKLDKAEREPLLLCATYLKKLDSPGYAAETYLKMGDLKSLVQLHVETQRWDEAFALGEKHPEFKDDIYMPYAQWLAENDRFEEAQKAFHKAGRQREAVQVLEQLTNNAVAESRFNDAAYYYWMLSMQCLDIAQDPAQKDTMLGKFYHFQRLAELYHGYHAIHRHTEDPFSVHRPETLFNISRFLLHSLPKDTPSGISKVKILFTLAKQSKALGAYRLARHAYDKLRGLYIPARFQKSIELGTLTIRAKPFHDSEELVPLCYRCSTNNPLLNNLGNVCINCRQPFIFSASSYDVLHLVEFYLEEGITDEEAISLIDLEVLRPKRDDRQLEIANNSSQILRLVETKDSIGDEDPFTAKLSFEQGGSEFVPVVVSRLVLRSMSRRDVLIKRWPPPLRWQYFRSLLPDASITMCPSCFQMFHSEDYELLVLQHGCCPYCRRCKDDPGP
The experiment in a line: cryo-EM structure; IFT-A complex co-expressed in HEK293F and co-purified; composite map from the IFT-A and IFT-A (-IFT139) datasets; 20 mM Tris-HCl pH 8.0, 200 mM NaCl, 2 mM DTT, 2 mM FFC-8 added; both purified.

The next experiment deals with T2, IFT144 (WDR19) (human) (UniProt Q8NEZ3).
T2 sequence: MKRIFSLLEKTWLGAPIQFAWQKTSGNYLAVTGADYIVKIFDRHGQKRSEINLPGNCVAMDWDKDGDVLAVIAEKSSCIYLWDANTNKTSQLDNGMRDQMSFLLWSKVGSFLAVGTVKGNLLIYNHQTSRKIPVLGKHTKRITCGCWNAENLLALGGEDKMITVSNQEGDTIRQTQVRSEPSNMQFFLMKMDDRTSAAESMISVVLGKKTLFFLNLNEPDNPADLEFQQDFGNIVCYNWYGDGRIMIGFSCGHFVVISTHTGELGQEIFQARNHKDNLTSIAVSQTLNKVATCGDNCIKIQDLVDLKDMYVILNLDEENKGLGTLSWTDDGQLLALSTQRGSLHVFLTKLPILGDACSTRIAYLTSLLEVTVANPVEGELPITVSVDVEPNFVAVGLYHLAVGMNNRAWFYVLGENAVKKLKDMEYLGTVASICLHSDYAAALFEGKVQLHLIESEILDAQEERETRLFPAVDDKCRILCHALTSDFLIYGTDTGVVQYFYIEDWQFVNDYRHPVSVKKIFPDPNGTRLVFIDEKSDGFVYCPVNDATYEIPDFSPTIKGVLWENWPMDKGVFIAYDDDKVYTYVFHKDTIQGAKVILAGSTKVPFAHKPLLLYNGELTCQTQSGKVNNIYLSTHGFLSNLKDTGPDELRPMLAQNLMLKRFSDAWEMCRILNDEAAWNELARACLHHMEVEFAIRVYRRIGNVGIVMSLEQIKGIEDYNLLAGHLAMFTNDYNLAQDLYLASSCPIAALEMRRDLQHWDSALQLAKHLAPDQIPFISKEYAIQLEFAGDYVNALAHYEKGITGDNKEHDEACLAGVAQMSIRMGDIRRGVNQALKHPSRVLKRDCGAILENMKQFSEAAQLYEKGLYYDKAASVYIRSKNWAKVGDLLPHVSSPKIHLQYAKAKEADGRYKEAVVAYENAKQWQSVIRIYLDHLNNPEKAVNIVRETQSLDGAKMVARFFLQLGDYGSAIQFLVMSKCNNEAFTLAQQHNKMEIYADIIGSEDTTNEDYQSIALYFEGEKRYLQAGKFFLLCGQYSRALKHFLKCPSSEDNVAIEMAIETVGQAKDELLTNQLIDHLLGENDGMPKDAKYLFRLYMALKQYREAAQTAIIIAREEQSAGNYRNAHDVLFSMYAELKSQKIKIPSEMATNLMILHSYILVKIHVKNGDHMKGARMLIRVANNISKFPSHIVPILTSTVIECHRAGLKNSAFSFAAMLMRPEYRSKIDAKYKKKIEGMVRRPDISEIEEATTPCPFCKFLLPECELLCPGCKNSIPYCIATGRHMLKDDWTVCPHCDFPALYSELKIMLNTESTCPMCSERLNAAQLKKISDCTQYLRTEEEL
The description is as above.

Experiment [2] addresses T1, IFT122 (human). The experiment can be described thus: cryo-EM structure; IFT-A-TULP3 complex with IFT139 (constructs 1-3, 5, 6), co-expressed and co-purified; 200 kV Arctica dataset, low-resolution map; both purified.
Experiment [3] addresses IFT140 (human) (UniProt Q96RY7). The description is as above.
The target of experiment [4] is T1, IFT122 (human). The experiment in a line: cryo-EM structure; IFT-A (without IFT139)-TULP3 complex co-expressed in HEK293F and co-purified; Krios dataset, focused refinement of the TULP3-binding region; both purified.
The target of experiment [5] is IFT140 (human) (UniProt Q96RY7). Described as above.

Take IFT140 (from UniProt Q96RY7-1 1-1462): the binding result in the experiment with IFT122 (human) [1] and in the experiment with IFT144 (WDR19) (human) was “binds” in each case.

B1: IFT122 (protein, UniProt Q9HBG6 1-1241)
chain: T1 sequence
As for B1, in the experiment with IFT144 (WDR19) (human), the binding result is “binds”.

B2: TULP3 with N-terminal mCherry tag (protein, UniProt O75386-1 1-442)
chain: MEASRCRLSPSGDSVFHEEMMKMRQAKLDYQRLLLEKRQRKKRLEPFMVQPNPEARLRRAKPRASDEQTPLVNCHTPHSNVILHGIDGPAAVLKPDEVHAPSVSSSVVEEDAENTVDTASKPGLQERLQKHDISESVNFDEETDGISQSACLERPNSASSQNSTDTGTSGSATAAQPADNLLGDIDDLEDFVYSPAPQGVTVRCRIIRDKRGMDRGLFPTYYMYLEKEENQKIFLLAARKRKKSKTANYLISIDPVDLSREGESYVGKLRSNLMGTKFTVYDRGICPMKGRGLVGAAHTRQELAAISYETNVLGFKGPRKMSVIIPGMTLNHKQIPYQPQNNHDSLLSRWQNRTMENLVELHNKAPVWNSDTQSYVLNFRGRVTQASVKNFQIVHKNDPDYIVMQFGRVADDVFTLDYNYPLCAVQAFGIGLSSFDSKLACE
As to B2, the binding entry in the experiment with IFT122 (human) [2], with IFT140 (human) [3], with IFT122 (human) [4] and with IFT140 (human) [5] was “binds” throughout.

B3: IFT139 (TTC21B/THM1) with N-terminal mCherry tag (protein, UniProt Q7Z4L5 1-1316)
chain: MDSQELKTLINYYCQERYFHHVLLVASEGIKRYGSDPVFRFYHAYGTLMEGKTQEALREFEAIKNKQDVSLCSLLALIYAHKMSPNPDREAILESDARVKEQRKGAGEKALYHAGLFLWHIGRHDKAREYIDRMIKISDGSKQGHVLKAWLDITRGKEPYTKKALKYFEEGLQDGNDTFALLGKAQCLEMRQNYSGALETVNQIIVNFPSFLPAFVKKMKLQLALQDWDQTVETAQRLLLQDSQNVEALRMQALYYVCREGDIEKASTKLENLGNTLDAMEPQNAQLFYNITLAFSRTCGRSQLILQKIQTLLERAFSLNPQQSEFATELGYQMILQGRVKEALKWYKTAMTLDETSVSALVGFIQCQLIEGQLQDADQQLEFLNEIQQSIGKSAELIYLHAVLAMKKNKRQEEVINLLNDVLDTHFSQLEGLPLGIQYFEKLNPDFLLEIVMEYLSFCPMQPASPGQPLCPLLRRCISVLETVVRTVPGLLQTVFLIAKVKYLSGDIEAAFNNLQHCLEHNPSYADAHLLLAQVYLSQEKVKLCSQSLELCLSYDFKVRDYPLYHLIKAQSQKKMGEIADAIKTLHMAMSLPGMKRIGASTKSKDRKTEVDTSHRLSIFLELIDVHRLNGEQHEATKVLQDAIHEFSGTSEEVRVTIANADLALAQGDIERALSILQNVTAEQPYFIEAREKMADIYLKHRKDKMLYITCFREIAERMANPRSFLLLGDAYMNILEPEEAIVAYEQALNQNPKDGTLASKMGKALIKTHNYSMAITYYEAALKTGQKNYLCYDLAELLLKLKWYDKAEKVLQHALAHEPVNELSALMEDGRCQVLLAKVYSKMEKLGDAITALQQARELQARVLKRVQMEQPDAVPAQKHLAAEICAEIAKHSVAQRDYEKAIKFYREALVHCETDNKIMLELARLYLAQDDPDSCLRQCALLLQSDQDNEAATMMMADLMFRKQDYEQAVFHLQQLLERKPDNYMTLSRLIDLLRRCGKLEDVPRFFSMAEKRNSRAKLEPGFQYCKGLYLWYTGEPNDALRHFNKARKDRDWGQNALYNMIEICLNPDNETVGGEVFENLDGDLGNSTEKQESVQLAVRTAEKLLKELKPQTVQGHVQLRIMENYCLMATKQKSNVEQALNTFTEIAASEKEHIPALLGMATAYMILKQTPRARNQLKRIAKMNWNAIDAEEFEKSWLLLADIYIQSAKYDMAEDLLKRCLRHNRSCCKAYEYMGYIMEKEQAYTDAALNYEMAWKYSNRTNPAVGYKLAFNYLKAKRYVDSIDICHQVLEAHPTYPKIRKDILDKARASLRP
As to B3, in the experiment with IFT122 (human) [1], the binding result is reported as “binds”.
